Results from the supplement of paper PMC11006884.
Most of the targets with a hit are listed elsewhere, so they are rarer here than in the full data. Single values of this set are uncertain. The list shows a part of the results, in another mix than the full data.

Protein sequences, listed by entry. Tags and fused reporters are not part of them. Lines headed by an entry give the natural chain unless they say otherwise; changes in a name come on top.
UniProt O00217, whole entry: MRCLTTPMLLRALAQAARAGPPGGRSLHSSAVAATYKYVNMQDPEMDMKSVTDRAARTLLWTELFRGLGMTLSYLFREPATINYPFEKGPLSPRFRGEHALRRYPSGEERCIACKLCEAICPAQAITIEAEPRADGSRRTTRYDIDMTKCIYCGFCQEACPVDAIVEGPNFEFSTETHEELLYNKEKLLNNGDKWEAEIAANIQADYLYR
UniProt O14713: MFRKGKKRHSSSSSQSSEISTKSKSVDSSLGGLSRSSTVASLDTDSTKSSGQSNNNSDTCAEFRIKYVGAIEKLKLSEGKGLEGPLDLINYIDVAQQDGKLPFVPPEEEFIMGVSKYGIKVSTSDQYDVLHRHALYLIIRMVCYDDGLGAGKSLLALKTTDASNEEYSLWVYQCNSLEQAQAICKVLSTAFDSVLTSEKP
UniProt O14497, whole entry, looked up: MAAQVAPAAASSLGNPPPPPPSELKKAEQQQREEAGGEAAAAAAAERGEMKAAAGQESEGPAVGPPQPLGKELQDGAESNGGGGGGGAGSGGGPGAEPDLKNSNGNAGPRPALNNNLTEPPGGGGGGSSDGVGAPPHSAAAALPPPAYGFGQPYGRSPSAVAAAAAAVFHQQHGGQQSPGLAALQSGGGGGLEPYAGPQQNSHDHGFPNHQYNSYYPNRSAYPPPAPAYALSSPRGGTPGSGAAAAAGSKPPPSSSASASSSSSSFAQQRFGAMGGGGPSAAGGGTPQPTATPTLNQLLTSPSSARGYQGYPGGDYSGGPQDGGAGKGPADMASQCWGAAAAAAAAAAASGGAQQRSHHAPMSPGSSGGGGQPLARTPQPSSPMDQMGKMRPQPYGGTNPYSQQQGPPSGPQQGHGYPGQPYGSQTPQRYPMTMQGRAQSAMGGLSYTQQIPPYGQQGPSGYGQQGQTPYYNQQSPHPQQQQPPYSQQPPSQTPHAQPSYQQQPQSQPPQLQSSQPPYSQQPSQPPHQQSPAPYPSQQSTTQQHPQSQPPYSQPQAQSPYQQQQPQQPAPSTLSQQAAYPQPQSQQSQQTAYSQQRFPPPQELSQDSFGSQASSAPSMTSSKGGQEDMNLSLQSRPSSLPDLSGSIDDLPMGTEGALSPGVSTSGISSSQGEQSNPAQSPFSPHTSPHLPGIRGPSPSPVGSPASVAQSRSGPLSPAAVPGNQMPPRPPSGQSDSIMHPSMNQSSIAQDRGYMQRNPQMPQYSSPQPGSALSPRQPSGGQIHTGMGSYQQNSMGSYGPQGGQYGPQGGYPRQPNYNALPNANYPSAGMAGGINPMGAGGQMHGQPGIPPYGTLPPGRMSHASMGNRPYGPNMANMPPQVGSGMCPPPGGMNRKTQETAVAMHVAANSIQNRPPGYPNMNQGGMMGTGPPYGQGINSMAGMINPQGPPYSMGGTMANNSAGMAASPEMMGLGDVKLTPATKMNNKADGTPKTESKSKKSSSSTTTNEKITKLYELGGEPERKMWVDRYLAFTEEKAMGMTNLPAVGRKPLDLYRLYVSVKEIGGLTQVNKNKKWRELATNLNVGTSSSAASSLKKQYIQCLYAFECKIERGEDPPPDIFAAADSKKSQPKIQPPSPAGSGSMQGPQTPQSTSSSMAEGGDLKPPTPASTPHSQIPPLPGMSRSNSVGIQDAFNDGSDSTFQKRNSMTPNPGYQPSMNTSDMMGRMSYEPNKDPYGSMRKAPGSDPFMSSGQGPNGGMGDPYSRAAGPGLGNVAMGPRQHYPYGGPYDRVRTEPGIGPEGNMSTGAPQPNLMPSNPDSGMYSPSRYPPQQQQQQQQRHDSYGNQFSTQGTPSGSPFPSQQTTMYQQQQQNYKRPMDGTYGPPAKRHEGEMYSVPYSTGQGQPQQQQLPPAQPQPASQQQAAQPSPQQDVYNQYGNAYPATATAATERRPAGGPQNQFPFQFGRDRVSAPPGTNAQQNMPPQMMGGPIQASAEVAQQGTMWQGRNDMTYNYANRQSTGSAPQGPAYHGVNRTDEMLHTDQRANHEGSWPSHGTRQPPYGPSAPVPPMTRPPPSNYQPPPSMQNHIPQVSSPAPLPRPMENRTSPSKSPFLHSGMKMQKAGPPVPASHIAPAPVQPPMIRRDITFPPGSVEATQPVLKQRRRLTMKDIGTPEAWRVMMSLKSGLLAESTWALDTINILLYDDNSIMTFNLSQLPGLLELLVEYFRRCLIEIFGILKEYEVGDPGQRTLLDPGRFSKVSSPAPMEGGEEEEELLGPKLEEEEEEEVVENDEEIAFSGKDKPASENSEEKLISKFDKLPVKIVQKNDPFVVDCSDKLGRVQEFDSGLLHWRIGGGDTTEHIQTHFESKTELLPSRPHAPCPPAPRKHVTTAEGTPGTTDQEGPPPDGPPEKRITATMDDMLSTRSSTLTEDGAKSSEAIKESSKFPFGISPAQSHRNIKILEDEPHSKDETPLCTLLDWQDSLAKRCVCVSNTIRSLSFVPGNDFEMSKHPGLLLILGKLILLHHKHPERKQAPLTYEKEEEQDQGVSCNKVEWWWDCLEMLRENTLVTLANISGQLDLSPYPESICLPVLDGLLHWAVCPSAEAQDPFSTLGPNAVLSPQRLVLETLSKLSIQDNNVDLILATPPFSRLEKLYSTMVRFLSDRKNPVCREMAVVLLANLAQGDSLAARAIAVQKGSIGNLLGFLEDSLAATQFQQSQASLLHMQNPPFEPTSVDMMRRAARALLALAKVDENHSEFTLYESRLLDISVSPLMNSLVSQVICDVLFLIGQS
UniProt O14519: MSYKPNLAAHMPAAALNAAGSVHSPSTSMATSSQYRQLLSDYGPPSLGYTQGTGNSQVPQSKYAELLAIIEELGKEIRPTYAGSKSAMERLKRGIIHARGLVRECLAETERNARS
UniProt O15084: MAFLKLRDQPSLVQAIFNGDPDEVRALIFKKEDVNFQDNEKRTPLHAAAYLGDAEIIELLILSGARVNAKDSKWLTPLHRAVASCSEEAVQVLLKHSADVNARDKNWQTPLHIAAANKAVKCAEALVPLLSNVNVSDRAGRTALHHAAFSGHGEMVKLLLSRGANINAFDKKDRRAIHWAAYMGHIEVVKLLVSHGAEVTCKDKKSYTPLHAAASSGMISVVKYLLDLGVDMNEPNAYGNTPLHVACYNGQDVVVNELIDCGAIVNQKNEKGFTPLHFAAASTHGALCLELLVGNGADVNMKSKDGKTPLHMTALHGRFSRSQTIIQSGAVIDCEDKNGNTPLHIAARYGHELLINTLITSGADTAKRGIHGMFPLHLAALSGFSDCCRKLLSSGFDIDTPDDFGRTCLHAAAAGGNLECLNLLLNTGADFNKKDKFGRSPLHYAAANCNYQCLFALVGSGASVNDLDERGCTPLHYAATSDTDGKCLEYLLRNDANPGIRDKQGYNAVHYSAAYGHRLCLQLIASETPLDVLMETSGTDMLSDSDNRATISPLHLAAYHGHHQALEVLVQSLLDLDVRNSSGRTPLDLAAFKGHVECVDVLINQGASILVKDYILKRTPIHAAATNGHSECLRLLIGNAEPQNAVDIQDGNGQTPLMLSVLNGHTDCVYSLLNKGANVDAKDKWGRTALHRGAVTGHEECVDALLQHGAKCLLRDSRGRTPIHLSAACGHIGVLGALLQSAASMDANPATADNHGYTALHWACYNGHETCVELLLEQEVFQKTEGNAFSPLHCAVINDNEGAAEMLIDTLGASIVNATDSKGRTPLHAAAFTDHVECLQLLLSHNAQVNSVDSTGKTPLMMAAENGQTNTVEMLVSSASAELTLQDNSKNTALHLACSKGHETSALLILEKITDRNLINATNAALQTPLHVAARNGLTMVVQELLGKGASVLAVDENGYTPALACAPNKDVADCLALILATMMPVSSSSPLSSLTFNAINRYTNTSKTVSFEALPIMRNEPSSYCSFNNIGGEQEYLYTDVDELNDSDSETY
UniProt O00471: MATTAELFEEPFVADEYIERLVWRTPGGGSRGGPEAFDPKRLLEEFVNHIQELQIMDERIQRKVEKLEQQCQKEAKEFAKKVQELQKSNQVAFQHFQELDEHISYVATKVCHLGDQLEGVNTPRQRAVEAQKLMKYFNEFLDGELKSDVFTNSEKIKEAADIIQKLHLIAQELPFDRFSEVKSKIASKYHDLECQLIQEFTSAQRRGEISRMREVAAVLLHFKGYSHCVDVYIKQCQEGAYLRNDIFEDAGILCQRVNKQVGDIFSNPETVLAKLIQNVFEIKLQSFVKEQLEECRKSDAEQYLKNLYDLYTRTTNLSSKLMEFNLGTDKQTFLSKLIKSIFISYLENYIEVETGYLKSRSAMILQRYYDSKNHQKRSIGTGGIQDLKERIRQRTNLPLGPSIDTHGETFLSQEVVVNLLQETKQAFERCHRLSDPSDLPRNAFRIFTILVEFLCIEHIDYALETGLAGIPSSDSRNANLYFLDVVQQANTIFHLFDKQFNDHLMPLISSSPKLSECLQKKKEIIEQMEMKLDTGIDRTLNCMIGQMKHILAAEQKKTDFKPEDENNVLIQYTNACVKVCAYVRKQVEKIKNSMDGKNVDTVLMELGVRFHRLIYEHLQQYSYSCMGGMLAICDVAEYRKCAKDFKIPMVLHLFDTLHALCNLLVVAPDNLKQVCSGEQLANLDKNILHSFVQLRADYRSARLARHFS
UniProt B5ME19, whole entry: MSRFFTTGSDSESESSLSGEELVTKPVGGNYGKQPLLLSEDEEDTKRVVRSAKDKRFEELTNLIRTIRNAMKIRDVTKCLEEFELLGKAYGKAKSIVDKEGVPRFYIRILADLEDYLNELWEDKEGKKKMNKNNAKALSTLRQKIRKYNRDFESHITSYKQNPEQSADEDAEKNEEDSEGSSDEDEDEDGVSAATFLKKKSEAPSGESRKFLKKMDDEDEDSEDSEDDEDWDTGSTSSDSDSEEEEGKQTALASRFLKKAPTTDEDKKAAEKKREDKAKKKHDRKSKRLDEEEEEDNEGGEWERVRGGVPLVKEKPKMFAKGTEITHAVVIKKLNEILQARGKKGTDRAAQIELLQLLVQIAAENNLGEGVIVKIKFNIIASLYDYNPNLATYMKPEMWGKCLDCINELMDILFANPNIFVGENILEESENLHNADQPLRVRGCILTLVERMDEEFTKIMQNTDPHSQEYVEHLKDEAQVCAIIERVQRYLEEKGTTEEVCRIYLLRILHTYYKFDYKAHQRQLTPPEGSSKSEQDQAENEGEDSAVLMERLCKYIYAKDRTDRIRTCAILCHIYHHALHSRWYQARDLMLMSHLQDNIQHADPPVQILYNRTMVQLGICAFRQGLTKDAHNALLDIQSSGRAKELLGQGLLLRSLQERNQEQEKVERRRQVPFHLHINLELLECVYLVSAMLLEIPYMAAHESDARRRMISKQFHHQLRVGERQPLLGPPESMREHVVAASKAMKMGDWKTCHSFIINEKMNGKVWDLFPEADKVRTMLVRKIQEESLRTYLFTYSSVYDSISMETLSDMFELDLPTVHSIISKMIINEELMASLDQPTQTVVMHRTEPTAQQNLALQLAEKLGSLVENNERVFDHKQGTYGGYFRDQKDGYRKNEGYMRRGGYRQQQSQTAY
UniProt O00442: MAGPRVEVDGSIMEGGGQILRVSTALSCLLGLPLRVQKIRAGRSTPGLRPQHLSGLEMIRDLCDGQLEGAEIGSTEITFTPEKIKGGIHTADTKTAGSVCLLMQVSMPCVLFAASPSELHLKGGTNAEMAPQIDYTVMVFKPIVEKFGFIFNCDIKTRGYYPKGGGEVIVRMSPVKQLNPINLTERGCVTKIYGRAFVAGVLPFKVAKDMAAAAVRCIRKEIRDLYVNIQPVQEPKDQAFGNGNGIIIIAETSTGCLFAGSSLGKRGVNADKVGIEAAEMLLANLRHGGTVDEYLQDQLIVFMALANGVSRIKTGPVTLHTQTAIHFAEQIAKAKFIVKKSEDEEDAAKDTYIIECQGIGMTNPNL
UniProt O14641: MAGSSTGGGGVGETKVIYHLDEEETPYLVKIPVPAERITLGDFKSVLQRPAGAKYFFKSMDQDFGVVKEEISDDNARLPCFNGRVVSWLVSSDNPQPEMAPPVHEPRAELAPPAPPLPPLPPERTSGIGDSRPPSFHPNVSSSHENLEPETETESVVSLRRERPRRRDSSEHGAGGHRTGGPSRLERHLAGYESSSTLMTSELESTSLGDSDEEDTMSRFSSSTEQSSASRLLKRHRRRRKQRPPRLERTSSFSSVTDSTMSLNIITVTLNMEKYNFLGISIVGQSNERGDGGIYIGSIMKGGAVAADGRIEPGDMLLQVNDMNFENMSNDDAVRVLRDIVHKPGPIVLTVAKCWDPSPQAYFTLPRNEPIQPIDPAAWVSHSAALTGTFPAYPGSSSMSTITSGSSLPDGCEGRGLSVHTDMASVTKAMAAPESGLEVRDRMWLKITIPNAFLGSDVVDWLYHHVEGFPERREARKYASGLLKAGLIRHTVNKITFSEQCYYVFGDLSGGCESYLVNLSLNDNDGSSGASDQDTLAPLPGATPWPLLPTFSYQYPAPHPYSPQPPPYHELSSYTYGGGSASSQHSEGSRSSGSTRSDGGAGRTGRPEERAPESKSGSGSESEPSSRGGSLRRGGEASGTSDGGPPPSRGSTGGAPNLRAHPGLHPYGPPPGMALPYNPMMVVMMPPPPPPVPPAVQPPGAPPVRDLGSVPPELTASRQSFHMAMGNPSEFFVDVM

compound: COC(=O)/C=C/c1ccccc1 [methyl cinnamate]; experiment: log2 ratio of iodoacetamide-alkyne labeling of the cysteine site, DMSO over compound (competition); higher = stronger covalent engagement of the cysteine by the compound, active = 1 or more; settings: 500 µM; treatment time 1 h; system: HEK293T cell lysate
Summary of the method: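 Reporter intensities give each cysteine's log2 competition ratio as the mean of control channels over the mean of compound channels. The samples were HEK293T lysate (2 mg/mL) given vehicle or electrophile (500 µM, 1 h, ambient temperature), then iodoacetamide alkyne (1 h), followed by click coupling to sCIP-TMT reagents, pooling, trypsin digestion overnight at 37 °C, streptavidin enrichment, acid elution, Orbitrap Eclipse LC-MS/MS with FAIMS and FragPipe quantification. Duplicate channels and three replicates were run, and cysteines quantified in only one replicate were discarded.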

log2 ratio of iodoacetamide-alkyne labeling, inactive:
PRPF4 C299 (UniProt O43172) 0.136
PDLIM1 C45 (UniProt O00151) -0.0306
PHGDH C111 (UniProt O43175) -0.0364
POLR3A C960 (UniProt O14802) 0.478
NDUFS8 C117 (UniProt O00217) -0.0403
PFAS C502 (UniProt O15067) 0.168
UniProt O15042_C563 -0.0668
ITGB1BP1 C60 (UniProt O14713) 0.456
ARID1A C1827 (UniProt O14497) 0.33
CDK2AP1 C105 (UniProt O14519) 0.294
TNRC18 C2204 (UniProt O15417) 0.207
TRIM24 C81 (UniProt O15164) 0.00813
UniProt O14972_C243 0.146
PHGDH C295 (UniProt O43175) -0.0321
MYO1C C161 (UniProt O00159) -0.0131
ZZEF1 C69 (UniProt O43149) -0.0756
ANKRD28 C701 (UniProt O15084) 0.18
UniProt O00148_C86 -0.404
KMT2D C5314 (UniProt O14686) 0.289
DFFA C165 (UniProt O00273) 0.165
INPPL1 C5 (UniProt O15357) 0.0888
DNM1L C361 (UniProt O00429) 0.0314
MRPS12 C93 (UniProt O15235) 0.107
PFAS C108 (UniProt O15067) 0.0473
EXOC5 C111 (UniProt O00471) 0.164
UniProt O14757_C168 0.331
NDUFAB1 C140 (UniProt O14561) 0.28
EIF3CL C79 (UniProt B5ME19) 0.36
UniProt B3KU38_C358 0.312
OGT C620 (UniProt O15294) 0.292
UniProt O15042_C291 0.19
NVL C359 (UniProt O15381) -0.198
UniProt O00442_C28 0.0664
GTPBP1 C241 (UniProt O00178) -0.0115
DVL2 C80 (UniProt O14641) -0.0922
WDR46 C172 (UniProt O15213) 0.511
STX16 C150 (UniProt O14662) 0.133
XPO1 C1070 (UniProt O14980) 0.206

For reference, some entries already given.
log2 ratio of iodoacetamide-alkyne labeling, inactive:
NDUFAB1 C140 (UniProt O14561) 0.28
EIF3CL C79 (UniProt B5ME19) 0.36
